Reference: the supplement of paper PMC7661543
Differences between knockout arms are mostly noise.

Tested on: BT-20
Experiment: relative cell number vs DMSO control (72 h) (% of DMSO); higher = less growth inhibition (more cells)
Protocol: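 QMAP-Seq: a pool of 5 breast cancer cell lines (ZR-75-1, SKBR3, HCC-38, MDA-MB-231, BT-20), each carrying 12 doxycycline-inducible Cas9 sgRNA perturbations (11 knockouts plus non-targeting sgNT), was treated with compounds for 72 h at four 10-fold doses (10 nM-10 uM or 1 nM-1 uM range). Barcodes were amplified and sequenced, and cell number was interpolated from 293T spike-in standard curves. The result is expressed as % of the median of DMSO wells. Two biological replicates.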

Cc1ccc(C(=O)Cn2c3c(sc2=N)CCCC3)cc1 [PifithrinAlpha]
Conditions | relative cell number
sgRNA knockout: sgATF3, 10 nM | 101
sgRNA knockout: sgATF3, 100 nM | 111
sgRNA knockout: sgATF3, 1000 nM | 86.4
sgRNA knockout: sgATF3, 10000 nM | 89.1
sgRNA knockout: sgATF4, 10 nM | 103
sgRNA knockout: sgATF4, 100 nM | 116
sgRNA knockout: sgATF4, 1000 nM | 110
sgRNA knockout: sgATF4, 10000 nM | 86.3
sgRNA knockout: sgATF6, 10 nM | 97.7
sgRNA knockout: sgATF6, 100 nM | 100
sgRNA knockout: sgATF6, 1000 nM | 101
sgRNA knockout: sgATF6, 10000 nM | 83.4
sgRNA knockout: sgATG7, 10 nM | 105
sgRNA knockout: sgATG7, 100 nM | 94.2
sgRNA knockout: sgATG7, 1000 nM | 107
sgRNA knockout: sgATG7, 10000 nM | 82.6
sgRNA knockout: sgERN1, 10 nM | 92.3
sgRNA knockout: sgERN1, 100 nM | 105
sgRNA knockout: sgERN1, 1000 nM | 110
sgRNA knockout: sgERN1, 10000 nM | 83.5
sgRNA knockout: sgHSF1, 10 nM | 94.3
sgRNA knockout: sgHSF1, 100 nM | 96.2
sgRNA knockout: sgHSF1, 1000 nM | 94.3
sgRNA knockout: sgHSF1, 10000 nM | 86.9
sgRNA knockout: sgHSF2, 10 nM | 108
sgRNA knockout: sgHSF2, 100 nM | 94
sgRNA knockout: sgHSF2, 1000 nM | 89.1
sgRNA knockout: sgHSF2, 10000 nM | 75
sgRNA knockout: sgKEAP1, 10 nM | 91.2
sgRNA knockout: sgKEAP1, 100 nM | 89.8
sgRNA knockout: sgKEAP1, 1000 nM | 97.7
sgRNA knockout: sgKEAP1, 10000 nM | 84.39
sgRNA knockout: sgNFE2L2, 10 nM | 108
sgRNA knockout: sgNFE2L2, 100 nM | 85.9
sgRNA knockout: sgNFE2L2, 1000 nM | 101
sgRNA knockout: sgNFE2L2, 10000 nM | 86.4
sgRNA knockout: sgSLC35F2, 10 nM | 119
sgRNA knockout: sgSLC35F2, 100 nM | 104
sgRNA knockout: sgSLC35F2, 1000 nM | 112
sgRNA knockout: sgSLC35F2, 10000 nM | 79.4
sgRNA knockout: sgXBP1, 10 nM | 108.1
sgRNA knockout: sgXBP1, 100 nM | 102
sgRNA knockout: sgXBP1, 1000 nM | 114
sgRNA knockout: sgXBP1, 10000 nM | 87.5

CCc1c2c(nc3ccc(O)cc13)-c1cc3c(c(=O)n1C2)COC(=O)[C@]3(O)CC [SN38]
Conditions | relative cell number
sgRNA knockout: sgATF3, 1 nM | 96
sgRNA knockout: sgATF3, 10 nM | 79.5
sgRNA knockout: sgATF3, 100 nM | 38.7
sgRNA knockout: sgATF3, 1000 nM | 32.1
sgRNA knockout: sgATF4, 1 nM | 98.6
sgRNA knockout: sgATF4, 10 nM | 96.2
sgRNA knockout: sgATF4, 100 nM | 41.4
sgRNA knockout: sgATF4, 1000 nM | 28.8
sgRNA knockout: sgATF6, 1 nM | 86.8
sgRNA knockout: sgATF6, 10 nM | 72.1
sgRNA knockout: sgATF6, 100 nM | 37.4
sgRNA knockout: sgATF6, 1000 nM | 33.7
sgRNA knockout: sgATG7, 1 nM | 108
sgRNA knockout: sgATG7, 10 nM | 80.1
sgRNA knockout: sgATG7, 100 nM | 39.9
sgRNA knockout: sgATG7, 1000 nM | 32
sgRNA knockout: sgERN1, 1 nM | 97.9
sgRNA knockout: sgERN1, 10 nM | 84
sgRNA knockout: sgERN1, 100 nM | 38.1
sgRNA knockout: sgERN1, 1000 nM | 28
sgRNA knockout: sgHSF1, 1 nM | 85.6
sgRNA knockout: sgHSF1, 10 nM | 81.7
sgRNA knockout: sgHSF1, 100 nM | 43.6
sgRNA knockout: sgHSF1, 1000 nM | 29.5
sgRNA knockout: sgHSF2, 1 nM | 79.3
sgRNA knockout: sgHSF2, 10 nM | 80
sgRNA knockout: sgHSF2, 100 nM | 41.8
sgRNA knockout: sgHSF2, 1000 nM | 28.3
sgRNA knockout: sgKEAP1, 1 nM | 99.5
sgRNA knockout: sgKEAP1, 10 nM | 83.1
sgRNA knockout: sgKEAP1, 100 nM | 43.4
sgRNA knockout: sgKEAP1, 1000 nM | 33
sgRNA knockout: sgNFE2L2, 1 nM | 105
sgRNA knockout: sgNFE2L2, 10 nM | 68.7
sgRNA knockout: sgNFE2L2, 100 nM | 36.4
sgRNA knockout: sgNFE2L2, 1000 nM | 33.7
sgRNA knockout: sgSLC35F2, 1 nM | 85.7
sgRNA knockout: sgSLC35F2, 10 nM | 71.8
sgRNA knockout: sgSLC35F2, 100 nM | 37.6
sgRNA knockout: sgSLC35F2, 1000 nM | 31.1
sgRNA knockout: sgXBP1, 1 nM | 107
sgRNA knockout: sgXBP1, 10 nM | 82
sgRNA knockout: sgXBP1, 100 nM | 32.3
sgRNA knockout: sgXBP1, 1000 nM | 32.3

COc1nc(N)nc2c1ncn2[C@@H]1O[C@H](CO)[C@@H](O)[C@@H]1O [Nelarabine]
Conditions | relative cell number
sgRNA knockout: sgATF3, 10 nM | 89.7
sgRNA knockout: sgATF3, 100 nM | 99.7
sgRNA knockout: sgATF3, 1000 nM | 92.2
sgRNA knockout: sgATF3, 10000 nM | 105
sgRNA knockout: sgATF4, 10 nM | 112
sgRNA knockout: sgATF4, 100 nM | 107.97
sgRNA knockout: sgATF4, 1000 nM | 95.4
sgRNA knockout: sgATF4, 10000 nM | 93
sgRNA knockout: sgATF6, 10 nM | 90.5
sgRNA knockout: sgATF6, 100 nM | 90.4
sgRNA knockout: sgATF6, 1000 nM | 105
sgRNA knockout: sgATF6, 10000 nM | 66.1
sgRNA knockout: sgATG7, 10 nM | 99.9
sgRNA knockout: sgATG7, 100 nM | 87.9
sgRNA knockout: sgATG7, 1000 nM | 97.2
sgRNA knockout: sgATG7, 10000 nM | 92.6
sgRNA knockout: sgERN1, 10 nM | 85.8
sgRNA knockout: sgERN1, 100 nM | 102
sgRNA knockout: sgERN1, 1000 nM | 107
sgRNA knockout: sgERN1, 10000 nM | 102
sgRNA knockout: sgHSF1, 10 nM | 101
sgRNA knockout: sgHSF1, 100 nM | 99.6
sgRNA knockout: sgHSF1, 1000 nM | 79.7
sgRNA knockout: sgHSF1, 10000 nM | 97.9
sgRNA knockout: sgHSF2, 10 nM | 107
sgRNA knockout: sgHSF2, 100 nM | 99.6
sgRNA knockout: sgHSF2, 1000 nM | 91.14
sgRNA knockout: sgHSF2, 10000 nM | 96.7
sgRNA knockout: sgKEAP1, 10 nM | 99.3
sgRNA knockout: sgKEAP1, 100 nM | 95.4
sgRNA knockout: sgKEAP1, 1000 nM | 89.2
sgRNA knockout: sgKEAP1, 10000 nM | 87.1
sgRNA knockout: sgNFE2L2, 10 nM | 92.9
sgRNA knockout: sgNFE2L2, 100 nM | 119
sgRNA knockout: sgNFE2L2, 1000 nM | 100
sgRNA knockout: sgNFE2L2, 10000 nM | 96.4
sgRNA knockout: sgSLC35F2, 10 nM | 103
sgRNA knockout: sgSLC35F2, 100 nM | 94.9
sgRNA knockout: sgSLC35F2, 1000 nM | 99
sgRNA knockout: sgSLC35F2, 10000 nM | 115
sgRNA knockout: sgXBP1, 10 nM | 93.5
sgRNA knockout: sgXBP1, 100 nM | 91
sgRNA knockout: sgXBP1, 1000 nM | 99
sgRNA knockout: sgXBP1, 10000 nM | 88.2
